Article PMC7879569
These are yes or no findings as the source states them, for the method shown. Binding seen in cells or lysates may run through a third protein. Some entries that bind do so weakly or less than the wild type.

By UniProt entry, the sequences of proteins in these tests, tags left out.
UniProt Q4VSI4: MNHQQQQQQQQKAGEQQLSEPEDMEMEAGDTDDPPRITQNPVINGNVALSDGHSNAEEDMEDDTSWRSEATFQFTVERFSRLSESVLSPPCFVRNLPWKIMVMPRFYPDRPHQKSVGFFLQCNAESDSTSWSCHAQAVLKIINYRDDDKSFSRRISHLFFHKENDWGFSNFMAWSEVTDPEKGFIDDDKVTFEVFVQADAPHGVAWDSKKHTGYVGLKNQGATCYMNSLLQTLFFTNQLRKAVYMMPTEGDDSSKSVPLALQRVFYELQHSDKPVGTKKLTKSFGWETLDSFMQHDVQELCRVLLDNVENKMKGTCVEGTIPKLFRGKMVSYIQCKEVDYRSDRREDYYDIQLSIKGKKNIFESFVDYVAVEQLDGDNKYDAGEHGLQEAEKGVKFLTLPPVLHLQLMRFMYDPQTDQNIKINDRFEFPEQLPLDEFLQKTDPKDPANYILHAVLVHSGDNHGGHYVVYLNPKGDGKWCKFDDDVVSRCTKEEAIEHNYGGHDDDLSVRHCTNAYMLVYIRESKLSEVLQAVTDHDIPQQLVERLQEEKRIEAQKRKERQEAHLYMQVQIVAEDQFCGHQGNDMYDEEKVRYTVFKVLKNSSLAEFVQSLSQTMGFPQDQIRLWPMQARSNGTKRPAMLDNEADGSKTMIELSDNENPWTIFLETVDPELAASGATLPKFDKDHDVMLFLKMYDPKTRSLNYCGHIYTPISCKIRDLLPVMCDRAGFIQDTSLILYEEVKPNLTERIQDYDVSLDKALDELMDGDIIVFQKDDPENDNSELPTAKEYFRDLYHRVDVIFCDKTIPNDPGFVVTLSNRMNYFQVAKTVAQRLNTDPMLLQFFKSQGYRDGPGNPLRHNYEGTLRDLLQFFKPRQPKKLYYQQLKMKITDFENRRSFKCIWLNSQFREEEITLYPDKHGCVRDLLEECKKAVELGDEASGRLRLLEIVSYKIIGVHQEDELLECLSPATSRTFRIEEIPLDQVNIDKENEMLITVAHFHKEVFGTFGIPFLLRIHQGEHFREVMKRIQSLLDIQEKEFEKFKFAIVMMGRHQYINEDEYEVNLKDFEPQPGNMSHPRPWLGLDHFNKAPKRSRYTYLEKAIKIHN

Molecular target: T1, NAD(P)H oxidase 4 (NOX4) (rat (endogenous in rat chondrocytes)) (UniProt Q924V1)
T1 sequence: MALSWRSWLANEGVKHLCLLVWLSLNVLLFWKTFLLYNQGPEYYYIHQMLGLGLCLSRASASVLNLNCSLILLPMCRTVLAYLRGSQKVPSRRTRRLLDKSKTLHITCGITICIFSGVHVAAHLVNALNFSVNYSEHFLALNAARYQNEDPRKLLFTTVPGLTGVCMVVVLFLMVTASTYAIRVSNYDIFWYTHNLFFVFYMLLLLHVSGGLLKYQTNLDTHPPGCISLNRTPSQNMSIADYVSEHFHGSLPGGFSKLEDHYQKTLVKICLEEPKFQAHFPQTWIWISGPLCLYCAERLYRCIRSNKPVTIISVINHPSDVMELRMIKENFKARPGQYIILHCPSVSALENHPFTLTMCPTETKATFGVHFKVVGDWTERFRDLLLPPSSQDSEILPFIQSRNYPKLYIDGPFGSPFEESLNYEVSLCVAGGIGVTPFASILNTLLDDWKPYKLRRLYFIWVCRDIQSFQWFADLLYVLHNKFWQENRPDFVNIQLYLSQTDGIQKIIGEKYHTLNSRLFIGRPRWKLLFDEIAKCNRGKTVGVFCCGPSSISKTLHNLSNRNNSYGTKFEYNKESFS
Test: co-IP; rat chondrocyte lysates in RIPA buffer incubated with anti-USP7, anti-NOX4 or normal IgG at 4°C overnight, protein A/G beads 4°C 2 h, three washes with lysis buffer, immunoblot with anti-USP7 and anti-NOX4

ubiquitin-specific protease 7 (USP7) (from UniProt Q4VSI4 1-1103) (enzyme)
binding: binds
